Experimental data: the supplement of paper PMC12823440, “Inhibitors supercharge kinase turnover through native proteolytic circuits” (Nature, 2025)
Structures can show the parent of a compound that is named as a salt. This is one part of the list. The calls rarely recur for the same compound in another form.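 In K562 cells expressing nanoluciferase-fused kinases, luminescence was recorded at 4 h intervals between 2 and 18 h, normalized as percent of control with DMSO at 100% and a positive control at 0%. A significant (2 sigma) signal drop marks a time point as decreased. The authors' rule for a hit is not shown and takes in more than the number of time points.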

Amino acid sequences for entries named in this document (tags omitted). A change or cut given only in a name is not applied to a line headed by its entry.
UniProt Q8IWU2: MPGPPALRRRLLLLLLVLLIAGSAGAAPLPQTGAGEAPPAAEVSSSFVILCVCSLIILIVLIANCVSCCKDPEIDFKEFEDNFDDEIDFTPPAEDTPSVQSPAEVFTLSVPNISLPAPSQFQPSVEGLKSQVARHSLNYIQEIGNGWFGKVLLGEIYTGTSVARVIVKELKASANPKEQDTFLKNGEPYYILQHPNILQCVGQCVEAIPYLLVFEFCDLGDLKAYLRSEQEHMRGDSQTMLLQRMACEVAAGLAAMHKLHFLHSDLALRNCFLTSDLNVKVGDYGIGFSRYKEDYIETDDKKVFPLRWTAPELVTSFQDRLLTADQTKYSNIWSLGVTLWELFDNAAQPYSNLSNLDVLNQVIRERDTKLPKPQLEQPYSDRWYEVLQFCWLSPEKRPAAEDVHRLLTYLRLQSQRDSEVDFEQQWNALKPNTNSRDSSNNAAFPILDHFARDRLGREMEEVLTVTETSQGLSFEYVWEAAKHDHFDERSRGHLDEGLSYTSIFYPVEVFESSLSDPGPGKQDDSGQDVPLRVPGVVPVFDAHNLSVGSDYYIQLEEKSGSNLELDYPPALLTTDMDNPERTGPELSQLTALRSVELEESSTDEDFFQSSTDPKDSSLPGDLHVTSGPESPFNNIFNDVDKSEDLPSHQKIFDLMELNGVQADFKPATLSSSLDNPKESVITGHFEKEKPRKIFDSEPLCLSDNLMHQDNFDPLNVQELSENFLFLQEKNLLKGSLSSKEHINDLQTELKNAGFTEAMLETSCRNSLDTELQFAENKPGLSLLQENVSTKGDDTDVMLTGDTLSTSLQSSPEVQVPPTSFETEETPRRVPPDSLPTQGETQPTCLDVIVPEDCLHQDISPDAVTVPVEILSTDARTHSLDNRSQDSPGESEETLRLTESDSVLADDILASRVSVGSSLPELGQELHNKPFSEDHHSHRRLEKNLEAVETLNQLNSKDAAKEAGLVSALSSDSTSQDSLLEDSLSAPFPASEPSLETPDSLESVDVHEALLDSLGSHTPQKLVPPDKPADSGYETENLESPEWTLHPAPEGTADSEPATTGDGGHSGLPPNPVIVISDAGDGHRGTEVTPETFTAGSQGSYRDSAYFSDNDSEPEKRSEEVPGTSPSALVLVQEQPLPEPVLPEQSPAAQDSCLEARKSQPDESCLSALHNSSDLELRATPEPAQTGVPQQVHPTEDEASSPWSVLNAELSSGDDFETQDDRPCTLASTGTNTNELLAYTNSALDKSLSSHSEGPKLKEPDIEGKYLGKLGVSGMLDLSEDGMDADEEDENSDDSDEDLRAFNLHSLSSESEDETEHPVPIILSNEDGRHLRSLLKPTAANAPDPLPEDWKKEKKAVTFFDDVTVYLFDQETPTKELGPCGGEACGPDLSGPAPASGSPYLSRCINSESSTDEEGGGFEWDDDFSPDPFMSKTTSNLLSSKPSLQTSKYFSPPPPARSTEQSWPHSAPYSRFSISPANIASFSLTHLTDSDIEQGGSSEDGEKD
UniProt P07948: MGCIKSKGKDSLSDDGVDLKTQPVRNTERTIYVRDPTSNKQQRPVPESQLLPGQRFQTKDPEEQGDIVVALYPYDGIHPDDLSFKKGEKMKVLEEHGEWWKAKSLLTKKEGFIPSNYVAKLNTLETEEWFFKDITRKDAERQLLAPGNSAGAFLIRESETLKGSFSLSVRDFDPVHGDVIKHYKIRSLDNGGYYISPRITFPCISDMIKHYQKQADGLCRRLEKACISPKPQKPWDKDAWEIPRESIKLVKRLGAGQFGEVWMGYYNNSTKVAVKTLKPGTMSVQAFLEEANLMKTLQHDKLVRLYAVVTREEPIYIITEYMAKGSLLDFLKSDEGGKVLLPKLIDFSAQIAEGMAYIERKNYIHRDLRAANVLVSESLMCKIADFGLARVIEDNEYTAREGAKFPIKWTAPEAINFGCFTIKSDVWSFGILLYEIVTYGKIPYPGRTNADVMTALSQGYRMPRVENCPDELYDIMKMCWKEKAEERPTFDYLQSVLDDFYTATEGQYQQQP

target: LMTK2 (UniProt Q8IWU2); assay: kinase-Nluc reporter destabilization hit call (1 = scored as downregulated) (binary); higher = compound decreases kinase abundance; conditions: K562; 2-18 h

kinase-Nluc reporter destabilization hit call, inactive:
COc1ccc([C@@H]2CC(=O)c3c(O)cc(O)cc3O2)cc1O [Hesperetin] (10 µM) 0
N#Cc1c(-c2ccccc2)cc(-c2cc(Br)ccc2O)[nH]c1=O (10 µM) 0
Cc1c(CN2CCN(C(=O)[C@H](C)O)CC2)sc2c(N3CCOCC3)nc(-c3cnc(N)nc3)nc12 [Apitolisib] (10 µM) 0
NC1(Cc2ccc(Cl)cc2)CCN(c2ncnc3[nH]ccc23)CC1 (10 µM) 0
O=C(/C=C/c1ccc(O)c(O)c1)c1ccc(O[C@@H]2O[C@H](CO)[C@@H](O)[C@H](O)[C@H]2O)c(O)c1O [Marein] (10 µM) 0
CN(CC(=O)N(Cc1ccc(C2CCCCC2)cc1)c1ccc(C(=O)O)cc1)S(=O)(=O)c1c(F)c(F)c(F)c(F)c1F (2.5 µM) 0
CC(C)NC(=O)N1CC[C@H](NC2=Nc3cc(F)ccc3N(CC(F)F)c3ccc(Cl)cc32)C1 (10 µM) 0

target: LYN (UniProt P07948); assay: as above; conditions: K562; 2-18 h

kinase-Nluc reporter destabilization hit call, inactive:
Cn1cc(Nc2nccc(N3C[C@H]4CC[C@@H](C3)N4C(=O)[C@@H]3CC3(F)F)n2)cn1 (10 µM) 0
CC(C)=CC(=O)CCC(=O)N1CCN(Cc2cc3nc(-c4cccc5[nH]ncc45)nc(N4CCOCC4)c3s2)CC1 (10 µM) 0
CN(C)CCN(Cc1ccc(Cl)cc1)c1ccccn1 [Chloropyramine hydrochloride] (10 µM) 0
COc1cc([N+](=O)[O-])ccc1S(=O)(=O)N1C[C@@H](CN2CCN(c3ccccn3)CC2)[C@H](c2cccc(F)c2)C1 (relative stereo) (10 µM) 0
Cc1noc(C)c1-c1ccc(-c2cc(C(N)=O)c(NC(N)=O)s2)c(O[C@H]2CCNC2)c1 (10 µM) 0
CC(C)(C)NC(=O)c1cncn1C1CCN(c2ccc(-c3nnc(C(F)(F)F)o3)cn2)CC1 (10 µM) 0
COc1cccc(-n2c(=O)[nH]c3cc(Cl)n(-c4ccc(-c5cccc(OC)c5O)cc4)c3c2=O)c1 (2.5 µM) 0
O=C(Nc1cccnc1)c1cc(C(=O)c2c(F)cccc2Br)c[nH]1 (10 µM) 0
O=C(Nc1cc(Oc2cc(F)c(NC(=O)C3(C(=O)Nc4ccc(F)cc4)CC3)cc2F)ccn1)C1CC1 [Altiratinib] (10 µM) 0
O=C1NC(=O)C(=Cc2ccc(-c3ccc(F)cc3)o2)S1 (stereo in doubt) (10 µM) 0
O=C(NC(NC(=S)Nc1ccc(F)c([N+](=O)[O-])c1)C(Cl)(Cl)Cl)C(c1ccccc1)c1ccccc1 (stereo not given) (10 µM) 0
Nc1ncnc2c1ncn2[C@@H]1O[C@H](CO)C[C@H]1O [Cordycepin] (10 µM) 0
CC(C)(NS(=O)(=O)c1ccc2c(Cl)cnc(N=C(N)N)c2c1)C(=O)O (10 µM) 0
COc1cc2ncnc(Nc3cccc(Cl)c3)c2cc1OC (10 µM) 0
CCOc1ccc(C(=O)Nc2ncc([N+](=O)[O-])s2)cc1 (10 µM) 0
CC(C)CN[C@H]1CS(=O)(=O)C[C@@H]1S(=O)(=O)c1ccc(Cl)cc1 (10 µM) 0
CCn1c(=O)c(-c2ccc(-c3cncs3)cc2Cl)cc2cnc(Nc3ccc(N4CCN(C)CC4)cc3)nc21 (2.5 µM) 0
C[C@]1(O)CCC[C@@H]1n1c(=O)c(C(F)F)cc2cnc(NC3CCN(S(C)(=O)=O)CC3)nc21 (10 µM) 0
COc1c(NC(=O)C(=O)c2ccc(OCCN3CCOCC3)c3ccccc23)cc(C(C)(C)C)cc1NS(C)(=O)=O (2.5 µM) 0
COc1cc(S(C)(=O)=O)ccc1Nc1nc2ccc(-c3ccc(NC(=O)[C@H](C)c4ccc(F)cc4)cc3)cn2n1 [Empesertib] (10 µM) 0
Nc1cc(Nc2ccc(S(N)(=O)=O)cc2)ncn1 (10 µM) 0
O=C(O)c1cc(O)ccc1O [2,5-Dihydroxybenzoic acid] (10 µM) 0
OCCNC1CCCc2c1[nH]c1ccc(-c3ccccc3)cc21 (stereo not given) (2.5 µM) 0
CC(C)CC1(O)CCN(C(=O)c2ccc(NS(=O)(=O)c3cccc4nccnc34)cc2)CC1 (10 µM) 0
CNC(=O)c1ccc(-c2cnc3cnc(C(=O)N(C)c4ccc(Cl)cc4)cn23)cc1 (2.5 µM) 0
Cc1cc(Nc2cc(Cl)nc(Oc3ccc([N+](=O)[O-])cc3)n2)n[nH]1 [Autophinib] (2.5 µM) 0
CN1CCN(c2ccc(Nc3ncc4nc(Nc5ccccc5)n([C@@H]5CCN(S(=O)(=O)C6CC6)C5)c4n3)cc2)CC1 (2.5 µM) 0
Cc1c(CN2CCN(S(C)(=O)=O)CC2)sc2c(N3CCOCC3)nc(-c3cnc(N)nc3)nc12 (2.5 µM) 0
O=C(NCCCNc1nc(Nc2cccc(NC(=O)N3CCCC3)c2)ncc1I)c1cccs1 (2.5 µM) 0
O=C(/C=C/c1ccc(O[C@@H]2O[C@H](CO)[C@@H](O)[C@H](O)[C@H]2O[C@@H]2OC[C@](O)(CO)[C@H]2O)cc1)c1ccc(O)cc1O [Isoliquiritin apioside] (10 µM) 0
O=C1NC(=O)/C(=C/c2ccc3c(c2)OC(F)(F)O3)S1 (10 µM) 0
COc1ccc([C@@H]2CC(=O)c3c(O)cc(O)cc3O2)cc1O [Hesperetin] (10 µM) 0
N#Cc1c(-c2ccccc2)cc(-c2cc(Br)ccc2O)[nH]c1=O (10 µM) 0
Cc1c(CN2CCN(C(=O)[C@H](C)O)CC2)sc2c(N3CCOCC3)nc(-c3cnc(N)nc3)nc12 [Apitolisib] (10 µM) 0
NC1(Cc2ccc(Cl)cc2)CCN(c2ncnc3[nH]ccc23)CC1 (10 µM) 0
O=C(/C=C/c1ccc(O)c(O)c1)c1ccc(O[C@@H]2O[C@H](CO)[C@@H](O)[C@H](O)[C@H]2O)c(O)c1O [Marein] (10 µM) 0
CN(CC(=O)N(Cc1ccc(C2CCCCC2)cc1)c1ccc(C(=O)O)cc1)S(=O)(=O)c1c(F)c(F)c(F)c(F)c1F (2.5 µM) 0
CC(C)NC(=O)N1CC[C@H](NC2=Nc3cc(F)ccc3N(CC(F)F)c3ccc(Cl)cc32)C1 (10 µM) 0
